Reference: US5721106A, “In Vitro method for screening β-amyloid deposition” (Regents of the University of Minnesota, priority 1994, dated 1998)
“Also recorded” adds a separate entry of the source. At least one peptide structure holds a part that was inferred or is arguable (an end, a ring closure or a residue). Some entries repeat one wording, which the source may state once for all of them. Peptide text beside a SMILES is read from it.

How the values were obtained:
[1] = test system: Alzheimer's disease plaques; test: Competitive inhibition of ^125 I-β-amyloid peptide^1-40 deposition in homogenates of Alzheimer's disease temporal cortex; format: binding, human; settings: increasing concentrations of unlabelled peptide, AD temporal cortex homogenates (and sections)
Description: Brain tissue was obtained form normal and Alzheimer's disease patients at 0.5 to 14 hours postmortem, frozen on dry ice after collection, and stored at -20° C. until use. For filter binding studies, tissue homogenates were prepared after the method of H. P. Too and M. R. Hanley, Biochem. J. 252:545 (1988), the disclosure of which is incorporated by reference herein. Tissue was homogenized (Polytron, setting 7-8, 5-10 sec) in 5-10 volumes of 50 mM Tricine (pH 7.5) containing 10% sucrose and protease inhibitors (0.01% bacitracin, 0.002% soybean trypsin inhibitor, 0.0002% chicken egg trypsin inhibitor, 1 mM benzamidine hydrochloride) and pelleted at 10,000 g for 20 minutes. The homogenate was then resuspended and washed several times in Tricine buffer containing 120 mM NaCl, 10 mM EDTA, 300 mM KCl and centrifuged at 40,000 g for 20 minutes and stored at -20° C. for less than two months. Membranes (equivalent to about 30 mg tissue) were resuspended in 0.5 ml 50 mM TrisHCl (pH 7.5) containing 1 mg/ml bovine serum albumin (BSA), 10 mM MnCl2, 0.004% bacitracin, 0.002% chymostatin, 0.004% leupeptin, 0.1% dimethylsulfoxide for 30 minutes prior to addition of the radioligand (10^-11 to 10^-9 M) and various concentrations of unlabelled peptides in the same buffer.
(§1) After incubating for two hours at room temperature, the homogenates (final volume 0.575 ml) were filtered through glass fiber filters (Whatman GF/D), presoaked for at least two hours in 1 mg/ml BSA and rinsed with 25 mM Tricine (pH 7.5). After washing twice with 25 mM TrisHCl (pH 7.5) at room temperature, the filters were counted in a gamma counter.

AD plaques = test: Deposition of ^125 I-labelled β-amyloid peptides onto plaques in AD brain tissue (homogenate binding, autoradiography); design: species or system human; settings: labelled fragment combined with AD amyloid plaque or silk; relative to βA(1-40)-OH
Description: Fragments labelled in accordance with the method described herein can be combined with amyloid plaque derived from Alzheimer's disease tissue or other amyloid substance such as silk, and tested for activity, for example, their ability to deposit on these materials.
Brain tissue was obtained form normal and Alzheimer's disease patients at 0.5 to 14 hours postmortem, frozen on dry ice after collection, and stored at -20° C. until use. For filter binding studies, tissue homogenates were prepared after the method of H. P. Too and M. R. Hanley, Biochem. J. 252:545 (1988), the disclosure of which is incorporated by reference herein. […]
as §1
For tissue autoradiography, unfixed tissue was serially sectioned at 5-15 μm and thaw-mounted onto gelatin-coated slices. […] This approach generated film autoradiograms for quantitative densitometry,a high resolution emulsion autoradiograms for detailed histology, and a counterstained section for identification of cell types from each tissue section. […]

Row | Structure (SMILES) | inhibition of ^125 I-β-amyloid peptide^1-40 deposition onto plaques [1] | inhibition of ^125 I-β-amyloid peptide^1-40 deposition onto plaques ([1]; listed as neurokinin A) | inhibition of ^125 I-β-amyloid peptide^1-40 deposition onto plaques ([1]; listed as neurokinin B) | inhibition of ^125 I-β-amyloid peptide^1-40 deposition onto plaques ([1]; listed as β-amyloid peptide^25-35 -OH) | deposition activity of fragment (active / not active) (AD plaques)
1 | CSCC[C@H](NC(=O)[C@H](CC(C)C)NC(=O)CNC(=O)[C@@H](NC(=O)[C@H](Cc1ccccc1)NC(=O)[C@H](CO)NC(=O)[C@H](CC(=O)O)NC(=O)[C@@H](NC(=O)[C@H](CCCCN)NC(=O)[C@@H](N)Cc1c[nH]cn1)[C@@H](C)O)C(C)C)C(N)=O [Neurokinin A, reference compound] | essentially inactive | did not inhibit | – | – | –
2 | CSCC[C@H](NC(=O)[C@H](CC(C)C)NC(=O)CNC(=O)[C@@H](NC(=O)[C@H](Cc1ccccc1)NC(=O)[C@H](Cc1ccccc1)NC(=O)[C@H](CC(=O)O)NC(=O)[C@H](Cc1c[nH]cn1)NC(=O)[C@H](CCSC)NC(=O)[C@@H](N)CC(=O)O)C(C)C)C(N)=O [Neurokinin B, reference compound] | essentially inactive | – | did not inhibit | – | –
3 | CSCC[C@H](NC(=O)[C@H](CC(C)C)NC(=O)CNC(=O)[C@H](Cc1ccccc1)NC(=O)[C@H](Cc1ccccc1)NC(=O)[C@H](CCC(N)=O)NC(=O)[C@H](CCC(N)=O)NC(=O)[C@@H]1CCCN1C(=O)[C@H](CCCCN)NC(=O)[C@@H]1CCCN1C(=O)[C@@H](N)CCCNC(=N)N)C(N)=O [Substance P, reference compound] | did not inhibit; also recorded: essentially inactive | – | – | – | –
4 | CC[C@H](C)[C@H](NC(=O)[C@H](C)NC(=O)CNC(=O)[C@H](CCCCN)NC(=O)[C@H](CC(N)=O)NC(=O)[C@H](CO)NC(=O)CN)C(=O)N[C@H](C(=O)NCC(=O)N[C@@H](CC(C)C)C(=O)N[C@@H](CCSC)C(=O)O)[C@@H](C)CC [βA(25-35)-OH] (H-GSNKGAIIGLM-OH) | – | – | – | no detectable activity; also recorded: essentially inactive | not active (exhibit less than about 1% of the deposition level of βA(1-40)OH)
